Measurements as given in US20220185896A1 (NEW YORK UNIVERSITY, published 2022).
Results are given in words; binding and its absence hold for the method and conditions named. Some binding calls cover weakened binding; strength is not graded here.

Amino acid sequences for entries named in this document (tags omitted).
UniProt O08573: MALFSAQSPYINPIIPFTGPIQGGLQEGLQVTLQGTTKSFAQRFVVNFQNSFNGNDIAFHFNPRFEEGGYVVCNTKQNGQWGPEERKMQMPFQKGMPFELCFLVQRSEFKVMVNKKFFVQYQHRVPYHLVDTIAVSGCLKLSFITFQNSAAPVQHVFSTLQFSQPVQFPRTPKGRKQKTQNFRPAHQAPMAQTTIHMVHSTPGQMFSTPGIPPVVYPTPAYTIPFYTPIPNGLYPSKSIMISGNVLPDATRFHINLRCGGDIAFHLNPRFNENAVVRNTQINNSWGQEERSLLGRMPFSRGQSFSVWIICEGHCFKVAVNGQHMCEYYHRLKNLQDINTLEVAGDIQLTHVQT

What was measured:
[1] = molecular target: human galectin-9 on the cell surface (CRL-2134 cell line; patient tumor-derived cells) (human) (UniProt O00182); assay: flow cytometry, % Gal9+ of CD3+ cells, S3 fraction, pancreatic adenocarcinoma biopsy; antibody concentration not given
[2] = molecular target: human galectin-9 on the cell surface (CRL-2134 cell line; patient tumor-derived cells) (human) (UniProt O00182); assay: flow cytometry, % Gal9+ of EpCam+ cells, S3 fraction, colorectal carcinoma biopsy; antibody concentration not given
[3] = molecular target: human galectin-9 on the cell surface (CRL-2134 cell line; patient tumor-derived cells) (human) (UniProt O00182); assay: flow cytometry, % Gal9+ of CD3+ cells, S3 fraction, second pancreatic adenocarcinoma biopsy; antibody concentration not given
[4] = molecular target: human galectin-9 on the cell surface (CRL-2134 cell line; patient tumor-derived cells) (human) (UniProt O00182); assay: flow cytometry, % Gal9+ of EpCam+ cells, S3 fraction, second pancreatic adenocarcinoma biopsy; antibody concentration not given
[5] = molecular target: human galectin-9 on the cell surface (CRL-2134 cell line; patient tumor-derived cells) (human) (UniProt O00182); assay: flow cytometry, % Gal9+ of EpCam+ cells, S2 fraction, colorectal carcinoma biopsy; antibody concentration not given
[6] = molecular target: human galectin-9 on the cell surface (CRL-2134 cell line; patient tumor-derived cells) (human) (UniProt O00182); assay: flow cytometry on cells from human tumor biopsy organoid fractions
[7] = molecular target: human galectin-9 on the cell surface (CRL-2134 cell line; patient tumor-derived cells) (human) (UniProt O00182); assay: flow cytometry, % Gal9+ of EpCam+ cells, S2 fraction, pancreatic adenocarcinoma biopsy; antibody concentration not given
[8] = molecular target: human galectin-9 on the cell surface (CRL-2134 cell line; patient tumor-derived cells) (human) (UniProt O00182); assay: flow cytometry, % Gal9+ of EpCam+ cells, S2 fraction, second pancreatic adenocarcinoma biopsy; antibody concentration not given
[9] = molecular target: human galectin-9 on the cell surface (CRL-2134 cell line; patient tumor-derived cells) (human) (UniProt O00182); assay: flow cytometry, % Gal9+ of CD11b+ cells, S2 fraction, colorectal carcinoma biopsy; antibody concentration not given
[10] = molecular target: human galectin-9 on the cell surface (CRL-2134 cell line; patient tumor-derived cells) (human) (UniProt O00182); assay: flow cytometry, % Gal9+ of CD11b+ cells, S3 fraction, second pancreatic adenocarcinoma biopsy; antibody concentration not given
[11] = molecular target: human galectin-9 on the cell surface (CRL-2134 cell line; patient tumor-derived cells) (human) (UniProt O00182); assay: flow cytometry, % Gal9+ of EpCam+ cells, S3 fraction, pancreatic adenocarcinoma biopsy; antibody concentration not given
[12] = molecular target: human galectin-9 on the cell surface (CRL-2134 cell line; patient tumor-derived cells) (human) (UniProt O00182); assay: flow cytometry, % Gal9+ of CD11b+ cells, S3 fraction, colorectal carcinoma biopsy; antibody concentration not given
[13] = molecular target: human galectin-9 on the cell surface (CRL-2134 cell line; patient tumor-derived cells) (human) (UniProt O00182); assay: flow cytometry, % Gal9+ of CD11b+ cells, S2 fraction, second pancreatic adenocarcinoma biopsy; antibody concentration not given
[14] = molecular target: human galectin-9 on the cell surface (CRL-2134 cell line; patient tumor-derived cells) (human) (UniProt O00182); assay: flow cytometry, % Gal9+ of CD11b+ cells, S2 fraction, pancreatic adenocarcinoma biopsy; antibody concentration not given
[15] = molecular target: human galectin-9 on the cell surface (CRL-2134 cell line; patient tumor-derived cells) (human) (UniProt O00182); assay: flow cytometry, % Gal9+ of CD3+ cells, S2 fraction, pancreatic adenocarcinoma biopsy; antibody concentration not given
[16] = molecular target: human galectin-9 on the cell surface (CRL-2134 cell line; patient tumor-derived cells) (human) (UniProt O00182); assay: flow cytometry, % Gal9+ of CD3+ cells, S3 fraction, colorectal carcinoma biopsy; antibody concentration not given
[17] = molecular target: human galectin-9 on the cell surface (CRL-2134 cell line; patient tumor-derived cells) (human) (UniProt O00182); assay: flow cytometry, % Gal9+ of CD3+ cells, S2 fraction, colorectal carcinoma biopsy; antibody concentration not given
[18] = molecular target: human galectin-9 on the cell surface (CRL-2134 cell line; patient tumor-derived cells) (human) (UniProt O00182); assay: flow cytometry, % Gal9+ of CD3+ cells, S2 fraction, second pancreatic adenocarcinoma biopsy; antibody concentration not given
[19] = molecular target: mouse galectin-9 on or in KPC mouse pancreatic cancer cells (mouse) (UniProt O08573); assay: flow cytometry on permeabilized KPC cells
[20] = molecular target: human galectin-9 on the cell surface (CRL-2134 cell line; patient tumor-derived cells) (human) (UniProt O00182); assay: flow cytometry, % Gal9+ of CD11b+ cells, S3 fraction, pancreatic adenocarcinoma biopsy; antibody concentration not given
[21] = molecular target: cynomolgus galectin-9 CRD2 domain (cynomolgus monkey); assay: bead based binding
[22] = molecular target: human galectin-9 on the cell surface (CRL-2134 cell line; patient tumor-derived cells) (human) (UniProt O00182); assay: cell based binding on CRL-2134 cells
[23] = molecular target: galectin-9 on the HuProt Human Proteome Microarray (human) (UniProt O00182); assay: HuProt Human Proteome Microarray, fluorescent secondary antibody
[24] = molecular target: galectin-9 on the HuProt Human Proteome Microarray (human) (UniProt O00182); assay: HuProt protein array, cross-reactivity assay
[25] = molecular target: human galectin-9 on the cell surface (CRL-2134 cell line; patient tumor-derived cells) (human) (UniProt O00182); assay: cell surface staining, flow cytometry on CRL-2134 cells

Measured: binding

B1: G9.2-17 Fab (Fab, V domains shown)
VH: EVQLVESGGGLVQPGGSLRLSCAASGFTVSSSSIHWVRQAPGKGLEWVAYISSSSGYTYYADSVKGRFTISADTSKNTAYLQMNSLRAEDTAVYYCARYWSYPSWWPYRGMDYWGQGTLVTVSS
VL: DIQMTQSPSSLSASVGDRVTITCRASQSVSSAVAWYQQKPGKAPKLLIYSASSLYSGVPSRFSGSRSGTDFTLTISSLQPEDFATYYCQQSSTDPITFGQGTKVEIKR
not listed: [21] | [22] | [23] | [24] | [25]
binds: all other assays above

B2: G9.2-17 mIgG1 (mouse IgG1 version of G9.2-17) (antibody, V domains shown)
VH: B1 VH
VL: B1 VL
notes: Mouse IgG1 backbone; also called mIgG1 G9.2-17; G9.2-17 IgG1 mouse mAb
binds: [21] | [22]

B3: anti-Galectin-9 antibody G9.2-17 (IgG4) (antibody, V domains shown)
VH: B1 VH
VL: B1 VL
notes: also called G9.2-17 (Ig4); G9.2-17 hIgG4 Fab Arm Exchange mut
binds: [23] | [24] | [25]
